The values that follow come from patent US20130156779A1.

The chains behind the UniProt entries cited, without tags or fusion partners. Where a name states a change or a piece, a line headed by the entry shows the natural chain unless it says otherwise. A line that says so, or that is headed by a name, gives the form on record, which may keep a tag or linker.
UniProt P21860: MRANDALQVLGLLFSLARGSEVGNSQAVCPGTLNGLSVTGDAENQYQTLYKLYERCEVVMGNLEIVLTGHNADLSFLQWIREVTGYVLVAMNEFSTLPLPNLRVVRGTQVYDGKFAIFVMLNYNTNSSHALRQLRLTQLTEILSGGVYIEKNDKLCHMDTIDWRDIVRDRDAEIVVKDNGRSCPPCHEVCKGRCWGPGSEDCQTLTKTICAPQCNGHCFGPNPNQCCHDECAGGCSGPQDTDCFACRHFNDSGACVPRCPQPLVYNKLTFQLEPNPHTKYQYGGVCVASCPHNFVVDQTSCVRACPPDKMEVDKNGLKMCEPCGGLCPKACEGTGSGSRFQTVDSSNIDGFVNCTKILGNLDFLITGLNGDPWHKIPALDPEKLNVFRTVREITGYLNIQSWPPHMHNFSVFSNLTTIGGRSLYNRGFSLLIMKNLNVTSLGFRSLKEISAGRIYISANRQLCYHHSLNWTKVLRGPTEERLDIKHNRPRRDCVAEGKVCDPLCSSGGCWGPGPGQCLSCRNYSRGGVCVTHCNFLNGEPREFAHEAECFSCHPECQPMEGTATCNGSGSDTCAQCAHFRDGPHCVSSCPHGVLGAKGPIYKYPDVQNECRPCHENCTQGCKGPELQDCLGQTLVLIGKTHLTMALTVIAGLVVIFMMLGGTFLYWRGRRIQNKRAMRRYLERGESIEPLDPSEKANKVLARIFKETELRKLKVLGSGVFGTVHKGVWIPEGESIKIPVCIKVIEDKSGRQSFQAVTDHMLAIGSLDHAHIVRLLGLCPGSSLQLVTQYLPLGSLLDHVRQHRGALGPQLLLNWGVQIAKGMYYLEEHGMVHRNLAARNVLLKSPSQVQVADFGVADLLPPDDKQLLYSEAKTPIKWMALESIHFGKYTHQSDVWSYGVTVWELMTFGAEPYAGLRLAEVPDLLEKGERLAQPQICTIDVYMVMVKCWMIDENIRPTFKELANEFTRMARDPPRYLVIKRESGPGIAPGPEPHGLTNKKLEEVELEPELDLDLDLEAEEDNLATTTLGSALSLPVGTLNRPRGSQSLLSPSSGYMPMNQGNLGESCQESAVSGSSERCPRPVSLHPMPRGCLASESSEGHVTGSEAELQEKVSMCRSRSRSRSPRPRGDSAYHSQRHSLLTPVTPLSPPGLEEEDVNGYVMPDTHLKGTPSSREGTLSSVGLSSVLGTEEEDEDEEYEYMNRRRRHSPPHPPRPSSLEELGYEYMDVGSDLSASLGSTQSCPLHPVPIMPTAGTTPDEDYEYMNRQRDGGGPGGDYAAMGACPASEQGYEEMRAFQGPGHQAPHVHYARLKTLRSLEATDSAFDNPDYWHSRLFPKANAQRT
Full-length cynomolgus monkey HER3 extracellular domain (ECD) (G7PIG5, form named): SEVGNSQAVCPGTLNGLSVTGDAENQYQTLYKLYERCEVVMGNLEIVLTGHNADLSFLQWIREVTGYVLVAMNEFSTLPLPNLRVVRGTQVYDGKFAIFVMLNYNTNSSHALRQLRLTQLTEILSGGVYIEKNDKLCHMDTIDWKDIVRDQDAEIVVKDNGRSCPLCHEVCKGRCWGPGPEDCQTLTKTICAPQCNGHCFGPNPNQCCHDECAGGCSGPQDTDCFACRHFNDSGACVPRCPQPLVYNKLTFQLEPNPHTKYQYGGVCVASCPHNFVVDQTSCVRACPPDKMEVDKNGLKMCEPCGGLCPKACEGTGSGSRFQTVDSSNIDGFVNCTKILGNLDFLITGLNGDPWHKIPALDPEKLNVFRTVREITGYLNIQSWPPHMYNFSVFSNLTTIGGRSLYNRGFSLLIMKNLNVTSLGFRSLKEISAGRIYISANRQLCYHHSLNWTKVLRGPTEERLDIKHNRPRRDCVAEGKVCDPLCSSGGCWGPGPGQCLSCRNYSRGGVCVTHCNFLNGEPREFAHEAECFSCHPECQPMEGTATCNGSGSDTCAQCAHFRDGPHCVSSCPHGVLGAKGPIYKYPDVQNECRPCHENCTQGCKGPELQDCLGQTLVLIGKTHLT

These are yes or no findings as the source states them, for the method shown. Some entries that bind do so weakly or less than the wild type. For part of these data: Where a sequence is shown, tags or fusion partners need not be part of it.

Test [1] has as its target Human HER3 ECD domain I (human) (UniProt P21860). The experiment in a line: DELFIA, plate coated with HER3 Domain I 1ug/ml.
For test [2], the target named is Human HER3 ECD domain IV (human) (UniProt P21860). As to the kind of experiment: DELFIA, plate coated with HER3 Domain IV 1ug/ml.
For test [3], the target named is Full-length cynomolgus monkey HER3 extracellular domain (ECD) (cynomolgus monkey) (UniProt G7PIG5). As to the kind of experiment: BIACORE SPR. For orientation: In SPR one partner is held on a chip, and binding of the other changes the refractive index at the surface.

B1: Murine 1D9 antibody (M5.1D9.1F5) (antibody, IgG2b, V domains shown)
VH: QVQLQQPGAELVRPGTSVKLSCKASGYTFTSYWMHWVKQRPGQGLEWIGVIDPSDGYSHYNQKFKGKATLTVDTSSSTAYMQLSSLTSEDSAVYYCAGGLAGTLDYWGQGTTLTVSS
VL: DVLMTQTPLSLPVSLGDQASISCRSSQSIVHSSGNTYLQWFLQKPGQSPKLLISKVSNRFSGVPDRFSGSGSGTDFTLRISRVEAEDLGLYYCFQGSHVPWTFGGGTKLEIK
With B1, the binding result in test [1] and in test [2] was “no binding (tested: 10 ug/ml)” throughout.

B2: Humanized 1D9 Fc disabled antibody (antibody, V domains shown)
VH: QVQLVQSGAEVKKPGASVKVSCKASGYTFTSYWMHWVRQAPGQGLEWMGVIDPSDGYSHYNQKFKGKVTLTVDTSISTAYMELSRLRSDDTAVYYCAGGLAGTLDYWGQGTTVTVSS
VL: DIQMTQSPSSLSASVGDRVTITCRSSQSIVHSSGNTYLQWFQQKPGKAPKLLIYKVSNRFSGVPSRFSGSGSGTDFTLTISSLQPEDFAVYYCFQGSHVPWTFGQGTKLEIKR
Consider B2, for which the binding result in test [3] is “binds”.
